Results are given in words; binding and its absence hold for the method and conditions named. Binding seen in cells or lysates may run through a third protein. Some results given as binding are weak or reduced against the parent protein; the word gives no strength.

The values that follow come from paper PMC6030168.

The experiment concerns the target T1, β-catenin (human (endogenous in SW480)), P35222.
T1 chain: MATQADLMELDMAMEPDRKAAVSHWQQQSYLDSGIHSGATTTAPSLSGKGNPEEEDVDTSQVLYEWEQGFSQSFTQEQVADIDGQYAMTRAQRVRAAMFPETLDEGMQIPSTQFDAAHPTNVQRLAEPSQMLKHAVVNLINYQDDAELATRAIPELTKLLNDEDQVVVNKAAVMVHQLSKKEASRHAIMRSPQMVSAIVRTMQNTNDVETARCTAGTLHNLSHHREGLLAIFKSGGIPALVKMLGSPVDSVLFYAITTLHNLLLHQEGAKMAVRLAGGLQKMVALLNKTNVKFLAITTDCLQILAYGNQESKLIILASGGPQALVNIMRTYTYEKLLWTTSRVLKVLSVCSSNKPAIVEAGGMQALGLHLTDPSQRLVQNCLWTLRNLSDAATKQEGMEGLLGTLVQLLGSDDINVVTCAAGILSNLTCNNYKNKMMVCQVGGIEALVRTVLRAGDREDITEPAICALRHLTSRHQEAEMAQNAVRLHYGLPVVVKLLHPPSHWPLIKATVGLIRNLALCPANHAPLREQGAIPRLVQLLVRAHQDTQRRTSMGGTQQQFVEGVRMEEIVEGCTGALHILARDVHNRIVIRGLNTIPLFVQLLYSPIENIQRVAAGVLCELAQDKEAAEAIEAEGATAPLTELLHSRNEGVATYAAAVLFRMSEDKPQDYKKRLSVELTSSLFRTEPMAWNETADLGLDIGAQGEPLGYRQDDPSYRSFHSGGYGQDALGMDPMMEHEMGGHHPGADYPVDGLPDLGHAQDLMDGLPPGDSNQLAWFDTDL
Briefly: co-IP; immunoprecipitation (Supplementary S4A); cells and bait not stated in the text shown. To be noted: remark: other sources report otherwise.

B1: LIM domain kinase 1 (LIMK1), P53667 1-647 (protein)
chain: MRLTLLCCTWREERMGEEGSELPVCASCGQRIYDGQYLQALNADWHADCFRCCDCSASLSHQYYEKDGQLFCKKDYWARYGESCHGCSEQITKGLVMVAGELKYHPECFICLTCGTFIGDGDTYTLVEHSKLYCGHCYYQTVVTPVIEQILPDSPGSHLPHTVTLVSIPASSHGKRGLSVSIDPPHGPPGCGTEHSHTVRVQGVDPGCMSPDVKNSIHVGDRILEINGTPIRNVPLDEIDLLIQETSRLLQLTLEHDPHDTLGHGLGPETSPLSSPAYTPSGEAGSSARQKPVLRSCSIDRSPGAGSLGSPASQRKDLGRSESLRVVCRPHRIFRPSDLIHGEVLGKGCFGQAIKVTHRETGEVMVMKELIRFDEETQRTFLKEVKVMRCLEHPNVLKFIGVLYKDKRLNFITEYIKGGTLRGIIKSMDSQYPWSQRVSFAKDIASGMAYLHSMNIIHRDLNSHNCLVRENKNVVVADFGLARLMVDEKTQPEGLRSLKKPDRKKRYTVVGNPYWMAPEMINGRSYDEKVDVFSFGIVLCEIIGRVNADPDYLPRTMDFGLNVRGFLDRYCPPNCPPSFFPITVRCCDLDPEKRPSFVKLEHWLETLRMHLAGHLPLGPQLEQLDRGFWETYRRGESGLPAHPEVPD
With B1, the binding result is “binds”.
